Source: the supplement of paper PMC6445147
This is a noisy data set.

B1: human tRNA-Pro; a variant is named by its letters at N, in order (parent)
chain: GGCTCGTTGGTCTAGNGGTATGATTCTCGCTTAGGGTGCGAGAGGTCCCGGGTTCNNATCCCGGACGAGCCC

What was measured:
[1] = variants of: B1; test: tRNA Pol-III promoter activity, log2 (circRNA frequency / plasmid DNA frequency) (log2 ratio); higher = stronger promoter activity; details: HEK293T; construct: no Pol-II promoter ((-)CMV library)
[2] = variants of: B1; test: tRNA 3' processing efficiency (processed reads / all reads, maximum-likelihood estimate) (fraction); higher = more efficient 3' processing; details: HEK293T; construct: no Pol-II promoter ((-)CMV library)
[3] = variants of: B1; test: tRNA 5' processing efficiency (processed reads / all reads, maximum-likelihood estimate) (fraction); higher = more efficient 5' processing; details: HEK293T; construct: CMV Pol-II promoter ((+)CMV library, decapped)

| Variant | tRNA Pol-III promoter activity (log2) [1] | tRNA 3' processing efficiency [2] | tRNA 5' processing efficiency [3] |
| --- | --- | --- | --- |
| GTA G9A T53C | 2.93 | 0.62 |  |
| GGC G15C T59G | 5.84 | 0.47 |  |
| GTA A14G A20G | 4.04 | 0.79 |  |
| GTA T8G G17T | 2.66 | 0.2 |  |
| CTA C55T | 4.19 | 0.39 |  |
| GAA T53A A58C | -0.0718 | 0.5 |  |
| CTA T19A A58C | 4.67 | 0.4 |  |
| GAA G15C T59C | 1.95 | 0.57 |  |
| GTA A58G | 4.08 | 0.29 | 0.25 |
| GAA G9T T59C | 2.99 | 0.37 | 0.29 |
| ATA T59C | 3.81 | 0.33 |  |
| AAG T19G | 7.46 | 0.28 |  |
| GGA T8G G18A | 4.15 | 0.57 |  |
| CAC A14T | 3.92 | 0.57 |  |
| GAT T19A A58T | 3.76 | 0.62 |  |
| CTA T19G | 3.04 | 0.57 |  |
| CAT T8C | 5.26 | 0.58 |  |
| GGA G17C A58C | 4.36 | 0.44 |  |
| CCA A14T | 3.48 | 0.29 |  |
| GGA T8C A14T | 1.94 | 0.67 |  |
| GAA G9T G17T T19A A20T C55G | 4.94 | 0.1 |  |
| CAA G9T T53A | 5.88 | 0.17 |  |
| GAA G17C A58T | 0.258 | 0.6 |  |

| Variant | tRNA Pol-III promoter activity (log2) [1] | tRNA 3' processing efficiency [2] | tRNA 5' processing efficiency [3] |
| --- | --- | --- | --- |
| GAA G9A G15A A20G A58G | 5.75 | 0.43 |  |
| GGA C55G A58T | 2.92 | 0.5 |  |
| TAG C55T | 2.11 | 0.4 |  |
| GAA G17C A58T T59G | 3.26 | 0.4 |  |
| GAA T19G T53G | 0.453 | 0.45 |  |
| TAG G9A | 2.85 | 0.22 |  |
| GAA T53G A58G T59A | 5.77 | 0.26 |  |
| TAA A14C A20T | 3.36 | 0.5 |  |
| GAA G15A G17T T59A | 4.36 | 0.25 |  |
| GAT A20T A58T | 1.08 | 0.25 |  |
| GAA G9T G15T T59G | 6.52 | 0.86 |  |
| GTA A14T G15A | 2.56 | 0.2 |  |
| ATA G17T | 4.17 | 0.46 |  |
| GTA A14G T19A | 2.86 | 0.56 |  |
| GAG T19C | 2.9 | 0.39 |  |
| GAA A14G T54A | 0.189 | 0.3 | 0.2 |
| GAA T59C | 2.84 | 0.41 | 0.18 |
| AAT A14T A58G | 5.34 | 0.5 |  |
| GAA A14T G17A A20G | 2.36 | 0.25 |  |
| CAG A14G A58G | 5.25 | 0.2 |  |
| TAA T53G | 1.23 | 0.24 |  |
| GGT T19C | 3.45 | 0.17 |  |
| TTA A58T | 4.15 | 0.27 |  |

| Variant | tRNA Pol-III promoter activity (log2) [1] | tRNA 3' processing efficiency [2] | tRNA 5' processing efficiency [3] |
| --- | --- | --- | --- |
| GAA A14T T19G A58T | 3.13 | 0.25 |  |
| GTA G15C G17T | 3.36 | 0.33 |  |
| GGA T54A C55T | 3.05 | 0.17 |  |
| TAC C55T A58T | 5.36 | 0.13 |  |
| GGT T19A T59A | 5.94 | 0.25 |  |
| ATT | 2.96 | 0.31 |  |
| GTA A58G T59A | 3.29 | 0.29 |  |
| TTA G18A | 4.19 | 0.33 |  |
| GTA G15T G18T | 4.45 | 0.5 |  |
| GTA T19G T59G | 5.33 | 0.57 |  |
| GAA T8C G15T T53A A58T | 4.36 | 0.5 |  |
| GAT G17C A20T | 3.94 | 0.29 |  |
| AAA T8A | 0.242 | 0.17 |  |
| TAC G18C | 4.34 | 0.38 |  |
| GCA A58G T59C | 5.2 | 0.11 |  |
| CAA G9C G15C A58C | 3.62 | 0.5 |  |
| GAA T8C G18A | -0.084 | 0.22 |  |
| GAG A14T T53A A58T | 4.34 | 0.25 |  |
| AAA A14T T59G | 3.05 | 0.33 |  |
| GAA A14T A20T | 2.37 | 0.44 |  |
| GAA G17A A20G T53A | 3.67 | 0.2 |  |
| CGG | 4.11 | 0.38 |  |
| GAA A14T G15T T59G | 2.27 | 0.2 |  |

| Variant | tRNA Pol-III promoter activity (log2) [1] | tRNA 3' processing efficiency [2] | tRNA 5' processing efficiency [3] |
| --- | --- | --- | --- |
| TAT G15C T19C | 6.74 | 0.29 |  |
| GAC T8G G15C T19G | 7.84 | 0.2 |  |
| GGA T8G A58C | 1.81 | 0.33 |  |
| GAA G15A G17T | -0.179 | 0.4 | 0.29 |
| GAG T8C T59C | 4.84 | 0.29 |  |
| TAA A20C T54A | 3.46 | 0.4 |  |
| GTA T8C C55T | 5.87 | 0.04 |  |
| GAA C55A T59G | -1.12 | 0.5 |  |
| GAA T19G T53A | 1 | 0.25 | 0.33 |
| GAA A20C A58G T59G | 5.45 | 0.13 |  |
| GAA G18A A58C | 0.172 | 0.49 | 0.5 |
| GGA T53A A58T | 5.16 | 0.57 |  |
| GGT G18T C55T | 6.51 | 0.5 |  |
| GAA G18A A20G | -1.45 | 0.33 | 0.17 |
| GTT G15A | 2.36 | 0.5 |  |
| GAT A58C | 0.68 | 0.41 |  |
| GAA T19A A20T T53G | 5.03 | 0.5 |  |
| GAC T59A | 1.15 | 0.45 |  |
| GAA G9C G15T G17C T19C A58C | 5.25 | 0.8 |  |
| ACA | 3.06 | 0.33 |  |
| GAA T19A C55T | -0.963 | 0.25 |  |
| TAA A14T C55T A58C | 4.84 | 0.29 |  |
| GGA T19C T53A | 4.93 | 0.33 |  |

Limited to tRNA 3' processing efficiency [2] (three entries from above):
Variant | tRNA 3' processing efficiency [2]
GAA A20C A58G T59G | 0.13
GAA G18A A58C | 0.49
GGA T53A A58T | 0.57

Looked up above:
GAA T8C G15T T53A A58T – tRNA 3' processing efficiency [2]: 0.5
GAA T19A A20T T53G – tRNA Pol-III promoter activity (log2) [1]: 5.03
GAA G9T G17T T19A A20T C55G – tRNA Pol-III promoter activity (log2) [1]: 4.94
GTA A14G T19A – tRNA Pol-III promoter activity (log2) [1]: 2.86

The results go on:

| Variant | tRNA Pol-III promoter activity (log2) [1] | tRNA 3' processing efficiency [2] | tRNA 5' processing efficiency [3] |
| --- | --- | --- | --- |
| GTA A14G G17T A20T | 4.53 | 0.17 |  |
| GAC G17C | 0.602 | 0.32 |  |
| ATA A20G A58T | 4.52 | 0.14 |  |
| GGT G17A | 4.3 | 0.58 |  |
| GAG T8C T59G | 4.71 | 0.38 |  |
| GCA A14G G18T | 3.33 | 0.62 |  |
| GTA G17A G18C | 1.66 | 0.5 |  |
| GAT T19C T54A | 3.62 | 0.67 |  |
| AAA A14T A58G | 3.93 | 0.33 |  |
| CAA T8C T53G A58T | 7.39 | 0.55 |  |
| GGT T19A A20T | 4.93 | 0.33 |  |
| GAG G9A A14T T53C | 3.36 | 0.6 |  |
| GAA A14T G17A A58C | 3.34 | 0.17 |  |
| GAC G9A A14C | 3.68 | 0.4 |  |
| GAG G17A T59A | 3.93 | 0.55 |  |
| GAA A14T T19C T59C | 3.45 | 0.33 |  |
| AAA C55G A58T | 5.62 | 0.89 |  |
| GTC G15T | 4.46 | 0.1 |  |
| GGA T54A A58T | 6.51 | 0.5 |  |
| GTT T8A G15T | 5.03 | 0.62 |  |
| GAG G15C G17T | 3.71 | 0.5 |  |
